This is an account of results in article PMC6127343.

The chains behind the UniProt entries cited, without tags or fusion partners. Residues count along the entry.
UniProt P48681: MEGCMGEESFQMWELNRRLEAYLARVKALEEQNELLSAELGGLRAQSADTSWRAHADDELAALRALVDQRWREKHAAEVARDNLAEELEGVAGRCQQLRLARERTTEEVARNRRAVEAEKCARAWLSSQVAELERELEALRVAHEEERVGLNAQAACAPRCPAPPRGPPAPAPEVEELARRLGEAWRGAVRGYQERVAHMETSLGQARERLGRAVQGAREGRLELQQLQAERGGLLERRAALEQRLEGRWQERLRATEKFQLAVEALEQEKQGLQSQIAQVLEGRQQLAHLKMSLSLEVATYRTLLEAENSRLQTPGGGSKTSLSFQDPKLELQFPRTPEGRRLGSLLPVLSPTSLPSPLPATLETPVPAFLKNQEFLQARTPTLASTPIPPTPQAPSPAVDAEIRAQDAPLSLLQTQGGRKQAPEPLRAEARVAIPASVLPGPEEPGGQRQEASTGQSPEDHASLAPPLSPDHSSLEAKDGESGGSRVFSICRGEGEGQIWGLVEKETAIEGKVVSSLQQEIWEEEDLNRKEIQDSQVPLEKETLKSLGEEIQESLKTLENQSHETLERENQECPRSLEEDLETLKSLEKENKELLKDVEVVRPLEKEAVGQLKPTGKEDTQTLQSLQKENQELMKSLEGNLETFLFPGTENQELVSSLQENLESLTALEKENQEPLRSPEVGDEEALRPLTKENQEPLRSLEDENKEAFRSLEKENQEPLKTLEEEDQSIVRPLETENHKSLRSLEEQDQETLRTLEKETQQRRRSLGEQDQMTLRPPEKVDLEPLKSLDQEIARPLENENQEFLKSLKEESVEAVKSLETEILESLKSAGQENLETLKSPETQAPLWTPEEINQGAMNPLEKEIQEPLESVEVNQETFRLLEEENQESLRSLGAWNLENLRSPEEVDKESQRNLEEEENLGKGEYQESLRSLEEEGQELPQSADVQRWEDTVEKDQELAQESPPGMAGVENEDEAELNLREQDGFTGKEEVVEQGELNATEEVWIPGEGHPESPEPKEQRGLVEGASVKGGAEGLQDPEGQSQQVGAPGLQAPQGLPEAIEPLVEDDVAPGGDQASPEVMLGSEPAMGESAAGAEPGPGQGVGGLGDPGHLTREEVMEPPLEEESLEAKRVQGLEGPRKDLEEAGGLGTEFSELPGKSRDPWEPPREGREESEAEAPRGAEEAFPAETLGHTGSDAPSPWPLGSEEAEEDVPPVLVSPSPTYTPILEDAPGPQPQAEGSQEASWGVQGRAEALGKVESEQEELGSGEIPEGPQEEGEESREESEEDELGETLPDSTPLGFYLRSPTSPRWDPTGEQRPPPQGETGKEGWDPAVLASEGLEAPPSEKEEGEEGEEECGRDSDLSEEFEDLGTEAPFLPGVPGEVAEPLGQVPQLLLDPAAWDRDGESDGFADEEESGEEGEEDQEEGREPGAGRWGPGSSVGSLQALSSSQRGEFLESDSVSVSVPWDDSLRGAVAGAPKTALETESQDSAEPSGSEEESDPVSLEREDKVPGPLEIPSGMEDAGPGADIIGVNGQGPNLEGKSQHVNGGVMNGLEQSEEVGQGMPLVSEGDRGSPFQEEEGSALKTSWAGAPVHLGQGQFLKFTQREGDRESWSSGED
UniProt P02545, residues 1-646: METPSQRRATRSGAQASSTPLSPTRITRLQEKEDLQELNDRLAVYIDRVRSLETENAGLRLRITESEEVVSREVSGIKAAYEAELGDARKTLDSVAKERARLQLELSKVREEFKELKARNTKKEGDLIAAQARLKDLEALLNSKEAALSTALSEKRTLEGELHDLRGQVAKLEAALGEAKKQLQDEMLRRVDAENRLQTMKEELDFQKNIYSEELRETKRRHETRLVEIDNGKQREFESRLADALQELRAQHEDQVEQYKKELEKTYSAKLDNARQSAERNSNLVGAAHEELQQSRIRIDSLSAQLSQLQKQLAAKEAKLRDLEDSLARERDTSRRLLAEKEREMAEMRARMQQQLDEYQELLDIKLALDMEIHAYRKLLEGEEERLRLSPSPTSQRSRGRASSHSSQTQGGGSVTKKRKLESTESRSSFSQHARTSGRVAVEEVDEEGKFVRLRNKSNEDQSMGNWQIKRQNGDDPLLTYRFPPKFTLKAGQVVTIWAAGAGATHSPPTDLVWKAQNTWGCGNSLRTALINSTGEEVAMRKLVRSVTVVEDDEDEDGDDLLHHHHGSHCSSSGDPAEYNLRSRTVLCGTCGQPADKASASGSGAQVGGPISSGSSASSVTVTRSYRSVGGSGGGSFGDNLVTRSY

In one test the target is Flag-tagged Nestin (UniProt P48681). As to the kind of experiment: co-IP; anti-Flag immunoprecipitation from lysates of A549 and H1299 cells overexpressing Flag-Nestin; Pierce IP lysis buffer, overnight at 4 °C, Dynabeads Protein G; blot for lamin A/C; IgG as negative control.
Test [1] addresses lamin A/C (human (endogenous in A549, H1299 and HEK293T)) (UniProt P02545). As to the kind of experiment: co-IP; anti-lamin A/C immunoprecipitation of endogenous proteins from A549 and H1299 lysates; Pierce IP lysis buffer, overnight at 4 °C, Dynabeads Protein G; blot for Nestin.

No constants are given. Whether binding was seen depends on the method and setting. Binding seen in cells or lysates may run through a third protein. Some entries that bind do so weakly or less than the wild type.

For lamin A/C (from UniProt P02545 1-646), the binding entry with Flag-tagged Nestin is “binds”. For “Nestin (endogenous) (from UniProt P48681 1-1621)”, the binding result in test [1] is on record as “binds”.
